Measurements reported in the supplement of paper PMC9938546.
Structures can show the parent of a compound that is named as a salt. This is one part of the list. Plates or batches differ in their baseline, so values are only roughly comparable.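 HCT116-GFP is a human colorectal cancer cell line that carries a KRAS mutation, is microsatellite-unstable and always makes green fluorescent protein; the immune cells came from healthy donors. Live-cell imaging of the green signal stood in for cancer cell survival, and activated immune cells alone cut survival to about half.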

tested on: HCT116-GFP; test: HCT116-GFP viability (GFP intensity) relative to untreated HCT116-GFP monoculture control, co-culture with activated PBMCs; higher = less cancer cell killing; settings: culture: co-culture with anti-CD3/IL2 activated PBMCs 1:1; 10 µM; 72 h

| SMILES | HCT116-GFP viability [%] |
| --- | --- |
| CN1CCCC(n2nc(Cc3ccc(Cl)cc3)c3ccccc3c2=O)CC1 (centres undefined) [Azelastine hydrochloride] | 66.2 |
| CCN1CCN(C(=O)N[C@@H](C(=O)N[C@@H]2C(=O)N3[C@@H]2SC(C)(C)[C@@H]3C(=O)O)c2ccccc2)C(=O)C1=O [Piperacillin sodium salt] | 72.9 |
| CO[C@@H]1[C@@H](OC(N)=O)[C@@H](O)[C@H](Oc2ccc3c(O)c(NC(=O)c4ccc(O)c(CC=C(C)C)c4)c(=O)oc3c2C)OC1(C)C [Novobiocin sodium salt] | 68.1 |
| N=C(N)NCC1COC2(CCCCC2)O1 (centres undefined) [Guanadrel sulfate] | 54.1 |
| CC1(C)OC(=O)NC1=O [Dimethadione] | 72.7 |
| Nc1ccc(C(=O)NCC(=O)O)cc1 [Aminohippuric acid] | 70.2 |
| COc1ccc(NS(=O)(=O)c2ccc(N)cc2)nn1 [Sulfamethoxypyridazine] | 87.2 |
| CCC[C@H](N[C@@H](C)C(=O)N1[C@H](C(=O)O)C[C@@H]2CCCC[C@@H]21)C(=O)OCC [Perindopril] | 25.4 |
| OCCN1CCN(CCCN2c3ccccc3Sc3ccc(Cl)cc32)CC1 [Perphenazine] | 29.5 |
| CN(C)CCc1c[nH]c2ccc(Cn3cncn3)cc12 [Rizatriptan benzoate] | 30.4 |
| Nc1ccc(S(=O)(=O)c2ccc(N)cc2)cc1 [Dapsone] | 56.8 |
| OC[C@H]1O[C@@H](Oc2ccc(O)cc2)[C@H](O)[C@@H](O)[C@@H]1O [Arbutin] | 35.7 |
| C=C1C[C@H]2[C@@H]3C=C(C)C4=CC(=O)CC[C@]4(C)[C@H]3CC[C@]2(C)[C@@]1(OC(C)=O)C(C)=O [Melengestrol acetate] | 104 |
| CC(=O)Oc1cccc2c1C(=O)c1c(OC(C)=O)cc(C(=O)O)cc1C2=O [Diacerein] | 84.2 |
| CN(C)CCc1c[nH]c2ccc(C[C@H]3COC(=O)N3)cc12 [Zolmitriptan] | 87 |
| CN(C)CCC=C1c2ccccc2C=Cc2ccccc21 [Cyclobenzaprine hydrochloride] | 69.9 |
| C[N+]1(C)CCC(=C(c2ccccc2)c2ccccc2)CC1 [Diphemanil methylsulfate] | 50.4 |
| NS(=O)(=O)c1cc2c(cc1Cl)NCNS2(=O)=O [Hydrochlorothiazide] | 34.3 |
| CNNCc1ccc(C(=O)NC(C)C)cc1 [Procarbazine hydrochloride] | 28.3 |
| O=c1[nH]c(=O)n([C@H]2C[C@H](O)[C@@H](CO)O2)cc1F [Floxuridine] | 3.39 |
| COc1cc(C)c(/C=C/C(C)=C/C=C/C(C)=C/C(=O)O)c(C)c1C [Acitretin] | 87.9 |
| CC(C)OC(=O)CCC/C=C\C[C@@H]1[C@@H](CC[C@@H](O)CCc2ccccc2)[C@H](O)C[C@@H]1O [Latanoprost] | 49.2 |
| CC(=O)Oc1cc(C(C)C)c(OCCN(C)C)cc1C [Moxisylyte hydrochoride] | 55.7 |
| CC(c1cc2ccccc2s1)N(O)C(N)=O (centres undefined) [Zileuton] | 74.2 |
| C#C[C@]1(O)CC[C@H]2[C@@H]3[C@H](C)CC4=C(CCC(=O)C4)[C@H]3CC[C@@]21C [Tibolone] | 47.4 |

| SMILES | HCT116-GFP viability [%] |
| --- | --- |
| CC(=O)OCC(=O)[C@@]1(O)CC[C@H]2[C@@H]3CCC4=CC(=O)C=C[C@]4(C)[C@@]3(F)[C@@H](O)C[C@@]21C [Isoflupredone acetate] | 67.4 |
| COc1cc(C(=O)N2CCOCC2)cc(OC)c1OC [Trimetozine] | 67.1 |
| CN(C)CCCOc1nn(Cc2ccccc2)c2ccccc12 [Benzydamine hydrochloride] | 65.4 |
| Nc1ccc(S(=O)(=O)Nc2ccc(Cl)nn2)cc1 [Sulfachloropyridazine] | 76.6 |
| COc1cc2nc(N3CCN(C(=O)C4CCCO4)CC3)nc(N)c2cc1OC (centres undefined) [Terazosin hydrochloride] | 63.5 |
| C[C@H]1[C@H](NC(=O)/C(=N\OC(C)(C)C(=O)O)c2csc(N)n2)C(=O)N1S(=O)(=O)O [Aztreonam] | 26.5 |
| CNCCC=C1c2ccccc2CCc2ccccc21 [Nortriptyline hydrochloride] | 49.8 |
| CCc1c2c(nc3ccc(OC(=O)N4CCC(N5CCCCC5)CC4)cc13)-c1cc3c(c(=O)n1C2)COC(=O)[C@]3(O)CC [Irinotecan hydrochloride trihydrate] | 12.3 |
| CC(C)(O/N=C(\C(=O)N[C@@H]1C(=O)N2C(C(=O)[O-])=C(C[n+]3ccccc3)CS[C@H]12)c1csc(N)n1)C(=O)O [Ceftazidime pentahydrate] | 35.1 |
| Cc1ccc(/C(=C\CN2CCCC2)c2ccccn2)cc1 [Triprolidine hydrochloride] | 48.3 |
| Cc1c(Cl)cccc1Nc1ncccc1C(=O)O [Clonixin Lysinate] | 23.4 |
| O=C(N/N=C/c1ccc([N+](=O)[O-])o1)c1ccc(O)cc1 [Nifuroxazide] | 16.7 |
| CN1CCN(C(c2ccccc2)c2ccc(Cl)cc2)CC1 (centres undefined) [Chlorcyclizine hydrochloride] | 69.5 |
| CC(=O)Nc1c(I)c(NC(C)=O)c(I)c(C(=O)O)c1I [Diatrizoic acid dihydrate] | 33.4 |
| CCc1cc(C(N)=S)ccn1 [Ethionamide] | 53.1 |
| CCC(=O)[C@@]1(C)[C@H](C)C[C@H]2[C@@H]3CCC4=CC(=O)C=C[C@]4(C)[C@H]3[C@@H](O)C[C@@]21C [Rimexolone] | 11.6 |
| CN(N=O)C(=O)N[C@@H](C=O)[C@@H](O)[C@H](O)[C@H](O)CO [Streptozotocin] | 80.7 |
| CC[C@]12CCCN3CCc4c(n(c5ccccc45)C(=O)C1)[C@@H]32 [Eburnamonine (-)] | 4.56 |
| CCn1cc(C(=O)O)c(=O)c2cc(F)c(N3CCN(C)CC3)cc21 [Pefloxacine] | 32 |
| C[C@@H]1CN(c2c(F)c(N)c3c(=O)c(C(=O)O)cn(C4CC4)c3c2F)C[C@H](C)N1 [Sparfloxacin] | 38.5 |
| C[C@]12C=CC(=O)C=C1CC[C@@H]1[C@@H]2C(=O)C[C@@]2(C)[C@H]1CC[C@]2(O)C(=O)CO [Prednisone] | 57.7 |
| CCn1cc(C(=O)O)c(=O)c2cc(F)c(N3CCNC(C)C3)c(F)c21 (centres undefined) [Lomefloxacin hydrochloride] | 62.7 |
| CS(=O)(=O)Nc1ccc([N+](=O)[O-])cc1Oc1ccccc1 [Nimesulide] | 32.6 |
| COc1cc(C)nc(-n2nc(C)cc2OC)n1 [Epirizole] | 39.3 |
| CNC(=C[N+](=O)[O-])NCCSCc1csc(CN(C)C)n1 [Nizatidine] | 65.2 |

| SMILES | HCT116-GFP viability [%] |
| --- | --- |
| CCN(CC)CCCC(C)Nc1c2ccc(Cl)cc2nc2ccc(OC)cc12 (centres undefined) [Quinacrine dihydrochloride hydrate] | 72.7 |
| CCCCCCCCCCCCCCCC[N+](C)(C)CCN(Cc1ccc(OC)cc1)c1ncccn1 [Thonzonium bromide] | 0.192 |
| C#C[C@]1(O)CC[C@H]2[C@@H]3CCc4cc(OC)ccc4[C@H]3CC[C@@]21C [Ethynylestradiol 3-methyl ether] | 69.2 |
| CC(C)NCC(O)c1ccc(NS(C)(=O)=O)cc1 (centres undefined) [Sotalol hydrochloride] | 54.8 |
| CC(=O)N1CCN(c2ccc(OCC3COC(Cn4ccnc4)(c4ccc(Cl)cc4Cl)O3)cc2)CC1 (centres undefined) [Ketoconazole] | 48.3 |
| CN(CCOc1ccc(NS(C)(=O)=O)cc1)CCc1ccc(NS(C)(=O)=O)cc1 [Dofetilide] | 48.7 |
| CCOC(=O)Nc1ccc2c(c1)N(C(=O)CCN1CCOCC1)c1ccccc1S2 [Moricizine hydrochloride] | 34.8 |
| CNC(=C[N+](=O)[O-])NCCSCc1ccc(CN(C)C)o1 [Ranitidine hydrochloride] | 46.7 |
| CC(C)C[C@H](NC(=O)[C@@H](O)[C@H](N)Cc1ccccc1)C(=O)O [Ubenimex] | 46.1 |
| COC(=O)[C@H]1[C@H]2C[C@@H]3c4[nH]c5cc(OC)ccc5c4CCN3C[C@H]2C[C@@H](OC(=O)c2cc(OC)c(OC)c(OC)c2)[C@@H]1OC [Reserpine] | 59.6 |
| CC(=O)O[C@]1(C(C)=O)CC[C@H]2[C@@H]3C=C(C)C4=CC(=O)CC[C@@H]4[C@H]3CC[C@@]21C [Nomegestrol acetate] | 43.9 |
| O=C1C(CC[S+]([O-])c2ccccc2)C(=O)N(c2ccccc2)N1c1ccccc1 (centres undefined) [Sulfinpyrazone] | 48.4 |
| NS(=O)(=O)c1cc2c(cc1Cl)N=C(CSCc1ccccc1)NS2(=O)=O [Benzthiazide] | 80.8 |
| CC(=O)Oc1cc(C(F)(F)F)ccc1C(=O)O [Triflusal] | 42.9 |
| CS(=O)(=O)c1ccc([C@@H](O)[C@@H](CO)NC(=O)C(Cl)Cl)cc1 [Thiamphenicol] | 37.3 |
| CC(C)Cc1ccc([C@H](C)C(=O)O)cc1 [S-(+)-ibuprofen] | 62.8 |
| C[C@]12C=CC(=O)C=C1CC[C@@H]1[C@@H]2[C@@H](O)C[C@@]2(C)[C@H]1CC[C@]2(O)C(=O)CO [Prednisolone] | 68.1 |
| O=c1[nH]cc(F)c(=O)[nH]1 [5-fluorouracil] | 2.76 |
| CN1CCN(CCCN2c3ccccc3Sc3ccc(S(=O)(=O)N(C)C)cc32)CC1 [Thioproperazine dimesylate] | 64 |
| C[C@@H](c1ncncc1F)[C@](O)(Cn1cncn1)c1ccc(F)cc1F [Voriconazole] | 38.9 |
| O=C(O)Cc1ccccc1Nc1c(Cl)cccc1Cl [Diclofenac sodium] | 38.5 |
| COC(=O)C1=C(C)NC(C)=C(C(=O)OC)C1c1ccccc1[N+](=O)[O-] [Nifedipine] | 24.7 |
| Nc1ccc(O)c(C(=O)O)c1 [Mesalamine] | 44.3 |
| CCN(CC)CCOC(=O)C1(c2ccc([N+](=O)[O-])cc2)CCCC1 [Nitrocaramiphen hydrochloride] | 45.6 |

Of the compounds above, 5 have an NH in an aromatic ring:

| SMILES | HCT116-GFP viability [%] |
| --- | --- |
| CN(C)CCc1c[nH]c2ccc(Cn3cncn3)cc12 [Rizatriptan benzoate] | 30.4 |
| CN(C)CCc1c[nH]c2ccc(C[C@H]3COC(=O)N3)cc12 [Zolmitriptan] | 87 |
| O=c1[nH]c(=O)n([C@H]2C[C@H](O)[C@@H](CO)O2)cc1F [Floxuridine] | 3.39 |
| COC(=O)[C@H]1[C@H]2C[C@@H]3c4[nH]c5cc(OC)ccc5c4CCN3C[C@H]2C[C@@H](OC(=O)c2cc(OC)c(OC)c(OC)c2)[C@@H]1OC [Reserpine] | 59.6 |
| O=c1[nH]cc(F)c(=O)[nH]1 [5-fluorouracil] | 2.76 |

Three structures already listed, arranged by SMILES length, rising.

| SMILES | HCT116-GFP viability [%] |
| --- | --- |
| CN1CCCC(n2nc(Cc3ccc(Cl)cc3)c3ccccc3c2=O)CC1 (centres undefined) [Azelastine hydrochloride] | 66.2 |
| C#C[C@]1(O)CC[C@H]2[C@@H]3CCc4cc(OC)ccc4[C@H]3CC[C@@]21C [Ethynylestradiol 3-methyl ether] | 69.2 |
| CC(C)(O/N=C(\C(=O)N[C@@H]1C(=O)N2C(C(=O)[O-])=C(C[n+]3ccccc3)CS[C@H]12)c1csc(N)n1)C(=O)O [Ceftazidime pentahydrate] | 35.1 |
